# Library screening results

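Viability assay of Plasmodium falciparum sporozoites; the read-out is not stated. The concentration is filed as 10 mM, unlikely as a test dose, so the dose is not known. Higher reads as lower viability (inferred: compounds with an IC50 in retests scored well above the rest). Strong results were mostly tested again. Of about 34,000 compounds tested this way, about 280 (0.84%) reached 50% or more in at least one test.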

Each number is a percent effect as filed.
The record does not define 0% and 100%; most values in the screen are far below 50% and negative numbers occur (in some assays of this library far below -100).
Compounds were drawn at random from those tested, without regard to their results.
Two or more numbers in one place are separate tests of the same structure; such repeats can differ widely.

SMILES	effect
CC(Cn1ccnc1)NC(=O)NCCc1cccs1 (stereo unspecified)	8.554% and -19.61% and -10.85%
O=C(O)C(F)(F)F.[H][C@@]12CCN(Cc3ccoc3)C[C@]1([H])O[C@@H](C(=O)N(C)C)C2	8.995%
CCN(CC)C(=O)CCNC(=O)c1c[nH]c2ccc(OC)cc12	12.66%
CN(Cc1ncc(-c2ccccc2)o1)C1CCCN(c2cccnn2)C1 (stereo unspecified)	31.42% and 31.02% and 46.77%
Cl.Cl.Cn1nc(C2CNCCO2)cc1CCOc1ccc(Cl)cc1 (stereo unspecified)	-1.356%
O=C(O)C(F)(F)F.O=C(O)C(F)(F)F.[H][C@@]12CN(Cc3cccc(F)c3)C[C@]1([H])OCCN2Cc1c(C)noc1C	11.38%
Cc1nc(-c2ccc(C(=O)O)cc2)cc(C2CCCN(C(C)C)C2)n1 (stereo unspecified)	10.41%
CCN(Cc1cccc(Cl)c1)Cc1nc2c(cnn2C)c(=O)[nH]1	-14.8%
O=C(CCO)N1CCOC2(CCCN(C(=O)c3ccco3)C2)C1 (stereo unspecified)	-1.963%
CC(CNC(=O)c1ccc(=O)[nH]n1)N1CCc2ccccc21 (stereo unspecified)	2.296%
CC(=O)N1CCC(c2nccnc2-c2ccc(F)cc2)CC1	8.243%
Cc1cnc2n(c1=O)CC(C(=O)Nc1ccccc1Cl)CS2 (stereo unspecified)	-13.58%
Cc1nnc2n1CCN(c1nc3ccccc3o1)C2	-7.338%
Cc1nccc(N2CCC(=O)N(CC3CC3)C(C(C)C)C2)n1 (stereo unspecified)	10.79%
COCCN1CCC2(CC1)CC(NC(=O)C1CC1)c1ccccc1O2.O=C(O)C(F)(F)F (stereo unspecified)	-0.7881%
O=C(CCNC(=O)c1ccccc1F)NCCNc1cccnc1	1.631% and -7.128%
COC(=O)c1ncccc1N1CCCC1	-11.51%
CCN1C(=O)CC[C@]12CC[C@@H](NC(=O)c1cc(C)on1)CC2	6.159%
O=C(c1cc[nH]n1)N1CCCC(c2cc(C(F)(F)F)[nH]n2)C1 (stereo unspecified)	-6.194%
O=C(O)C(F)(F)F.[H][C@@]12CCN(c3cnccn3)C[C@]1([H])CN(C(=O)c1cncn1C)C2	12.69%
CN(C)Cc1cnc(C2CN(C(=O)c3ccccc3Cl)CCO2)[nH]1 (stereo unspecified)	5.759%
CN1CCOC2(CCCN(C(=O)C3CCCCC3)C2)C1.O=C(O)C(F)(F)F (stereo unspecified)	1.198%
N#Cc1ccccc1CN1CCCCC1Cn1cncn1 (stereo unspecified)	0.96%
COCCN1CCC(CNC(=O)c2cc(C)cc(C)c2)C1 (stereo unspecified)	5.949%
CN1CC2(CCN(C(=O)c3cc(-n4cccn4)ccc3Cl)CC2)OC1=O	-20.17%
CC(=O)NCC1CCCN(C(=O)Cc2c(C)noc2C)C1 (stereo unspecified)	2.507%
COCCN1C[C@@H](c2ccccc2)[C@@]2(CCN(CC(=O)N(C)C)C2=O)C1.O=C(O)C(F)(F)F	4.816%
Nc1nc2c(c3c1C(=O)NC3=O)CCC2	75.96% and 84.59%
Cc1noc(C)c1C(=O)N1CCC(c2[nH]ncc2S(C)(=O)=O)C1 (stereo unspecified)	2.176%
COc1ccc(C(NCc2cccc(C#N)c2)C(C)C)cc1 (stereo unspecified)	-23.94% and -20.54%
Cc1cnccc1CN1C[C@@H](O)[C@H](Oc2cccc(F)c2)C1	-16.47%
Cc1noc(C)c1C(=O)NCc1ccc(N2CCOC(C)C2)nc1 (stereo unspecified)	-12.01%
O=C(c1cccnc1N1CCOCC1)N1CCCC1Cn1cccn1 (stereo unspecified)	-6.243%
CCOCc1nc2c(c(N3CCN4CCCC4C3)n1)CCNCC2 (stereo unspecified)	-0.7105%
FC(F)(F)Cn1ccnc1CNCCn1cccn1	-6.77%
O=C(c1cc(Cl)c[nH]1)N1CCCC(c2cc(C(F)(F)F)[nH]n2)C1 (stereo unspecified)	-4.937%
Cc1cc(C)n(C(=O)c2cn(C)nc2S(=O)(=O)N2CCSCC2)n1	-12.62%
O=C(NS(=O)(=O)c1ccc(F)cc1)C1CCOc2ccccc21 (stereo unspecified)	-2.131%
COCCNC(=O)c1ccc2c(=O)n3c(nc2c1)CCCCC3	1.726%
O=C(O)C(F)(F)F.[H][C@@]12OCCN(c3ncc(F)cn3)[C@@]1([H])CC[C@H]2OCC1CCOCC1	2.452%
CC(=O)N1N=C(c2ccccc2)OC1C(=O)NCCOc1ccccc1 (stereo unspecified)	-1.908%
Cc1nccn1-c1cc(CNC(=O)CCNC(=O)C2CCCC2)ccn1	13.28%
CC(=O)N1CC(c2ccnc(Nc3ccc(C)cn3)n2)C1	15.77% and 8.208% and 11.03%
COC(=O)c1ccccc1NC(=O)c1c(C)cn(C)c1CC(=O)O	11.37%
O=C(c1ccco1)N1CCn2cc(CN3CCCC3)nc2C1	9.192%
CCCC(=O)N1CCCC(C(=O)c2cnn(-c3ccc(F)cc3)c2N)C1 (stereo unspecified)	13.97% and 58.89% and 19.68%
CN(C)CC1CN(CCOc2cccc(C#N)c2)CCO1 (stereo unspecified)	-2.689%
Cc1nc(CN2CCCC2Cn2cccn2)nc2ccccc12 (stereo unspecified)	-14.14% and -1.034%
O=C(NCCCn1ccnc1)c1csc2c1CCCC2	-8.102%
CN(C)C(=O)c1c[nH]nc1C1CCN(S(=O)(=O)c2ccc(Cl)cc2)CC1	0.4476%

Some entries from above, unchanged:

- O=C(c1cc(Cl)c[nH]1)N1CCCC(c2cc(C(F)(F)F)[nH]n2)C1 (stereo unspecified) | -4.937%
- O=C(c1ccco1)N1CCn2cc(CN3CCCC3)nc2C1 | 9.192%
- Cc1nc(CN2CCCC2Cn2cccn2)nc2ccccc12 (stereo unspecified) | -14.14% and -1.034%

Data taken from ChEMBL document CHEMBL3988442, “University of Dundee, Small-Polar-MMV Screening Library” (2021).